From publication PMC11806007
These are yes or no findings as the source states them, for the method shown. Some results given as binding are weak or reduced against the parent protein; the word gives no strength.

Protein sequences, listed by entry. Tags and fused reporters are not part of them.
UniProt Q00987: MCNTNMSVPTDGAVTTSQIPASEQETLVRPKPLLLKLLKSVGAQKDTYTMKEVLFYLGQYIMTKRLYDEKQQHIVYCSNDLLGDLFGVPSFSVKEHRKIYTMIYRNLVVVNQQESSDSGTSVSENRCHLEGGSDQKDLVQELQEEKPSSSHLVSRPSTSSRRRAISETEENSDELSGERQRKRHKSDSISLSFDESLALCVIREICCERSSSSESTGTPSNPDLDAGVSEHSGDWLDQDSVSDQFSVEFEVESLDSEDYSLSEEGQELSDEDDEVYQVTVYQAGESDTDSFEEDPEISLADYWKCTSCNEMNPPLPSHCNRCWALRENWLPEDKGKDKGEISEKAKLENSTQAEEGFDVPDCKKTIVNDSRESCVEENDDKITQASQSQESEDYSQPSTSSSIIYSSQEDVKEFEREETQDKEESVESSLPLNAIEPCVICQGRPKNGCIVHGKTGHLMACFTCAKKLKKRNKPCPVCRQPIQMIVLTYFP

Target: GST-MDM2 (human) (UniProt Q00987)
Experiment: pull-down; GST or GST-MDM2 held by GST pull-down, incubated with 50 ng of recombinant spastin proteins or fragment in 50 mM Tris-HCl, pH 7.5, 150 nM NaCl (so in the source); bound spastin detected by WB; both purified

binding: binds
B1: spastin recombinant fragment containing the MIT domain (79-298 aa) (domain or fragment, UniProt Q9UBP0 79-298)
chain: CQRFSRALMAAKRSSGAAPAPASASAPAPVPGGEAERVRVFHKQAFEYISIALRIDEDEKAGQKEQAVEWYKKGIEELEKGIAVIVTGQGEQCERARRLQAKMMTNLVMAKDRLQLLEKMQPVLPFSKSQTDVYNDSTNLACRNGHLQSESGAVPKRKDPLTHTSNSLPRSKTVMKTGSAGLSGHHRAPSYSGLSMVSGVKQGSGPAPTTHKGTPKTNRT
